This passage reports binding results from PMC8666665.

No constants are given. Whether binding was seen depends on the method and setting. In cells and extracts the contact can be indirect. Here binding means that the protein was enriched with, or labelled near, the bait; the list need not be complete. A no says only that the protein was not detected with the bait.

The target of the assay is CD95(1–175)-BirA (human). Briefly: proximity labelling; BioID in CD95 k.o. HEK/293T cells reconstituted with CD95-BirA constructs, streptavidin pull-down, immunoblotting. In general terms: Immunoblotting shows a protein as a band on a membrane.

B1: Kip1 ubiquitination-promoting complex protein 2 (KPC2), endogenous in HEK/293T (protein, UniProt Q9BSL1 1-405)
chain: MFVQEEKIFAGKVLRLHICASDGAEWLEEATEDTSVEKLKERCLKHCAHGSLEDPKSITHHKLIHAASERVLSDARTILEENIQDQDVLLLIKKRAPSPLPKMADVSAEEKKKQDQKAPDKEAILRATANLPSYNMDRAAVQTNMRDFQTELRKILVSLIEVAQKLLALNPDAVELFKKANAMLDEDEDERVDEAALRQLTEMGFPENRATKALQLNHMSVPQAMEWLIEHAEDPTIDTPLPGQAPPEAEGATAAASEAAAGASATDEEARDELTEIFKKIRRKREFRADARAVISLMEMGFDEKEVIDALRVNNNQQNAACEWLLGDRKPSPEELDKGIDPDSPLFQAILDNPVVQLGLTNPKTLLAFEDMLENPLNSTQWMNDPETGPVMLQISRIFQTLNRT
Turning to B1, the binding entry was “no binding”.
